Reference: US20040138113A1, “Use of corticotroph-derived glycoprotein hormone to treat inflammation and potentiate glucocorticoid action” (priority 2002, published 2004)
At least one structure is not confirmed: it was looked up by name or label, or the drawing left a doubt.

Test system: neutrophils infiltrating the ears
Assay: Neutrophil infiltration in ears of DTH mice, anti-Gr-1 immunohistochemistry and histomorphometry
Type: in vivo, C57B1/6 mice
Details: anti-Gr-1 staining, DTH experiment #1
Experimental: Ears from mice in DTH experiment #1 were analyzed by immunohistochemistry to assess which cell types were most affected by CGH treatment. Ears were fixed in Zinc/Tris buffer (2.3 mM calcium acetate/31.6 mM zinc acetate/36.7 mM zinc chloride in 0.1M Tris-HCL buffer, pH 7.4) for 24 hours at room temperature and stained with antibodies specific for CD4, CD8, CD11c, and Gr-1 (neutrophils). […] Ears were stained using a TechMate 500 autoimmunostainer (Biotech/Ventana) MIP protocol with some modifications. After drying the slides for 1 hour at 60° C., the sections were stained with a rat anti-mouse Gr-1 mAb (clone 7/4, Serotec, isotype rat IgG2a, used at 1.25 ug/ml final dilution), overnight at 4° C. This step was followed, after a wash, by biotinylated rabbit anti-rat IgG secondary antibody (Dako, used at 10 ug/ml in PBS with 2% normal rabbit serum and 2% nonfat dry milk) for 45 min. The sections were then washed and treated with HP Block (1.5% H2O2 in 50% methanol) 3 times, 7 min each, followed by 25 min in avidin-biotin complex, 3 times of 4 min each in DAB (Diaminobenzidine), then with Methyl green for 10 min.
Histomorphometry was performed to obtain the average pixel density of neutrophils per unit length (1 mm) present in the ear samples. […]

C[C@@H]1C[C@H]2[C@@H]3CCC4=CC(=O)C=C[C@]4(C)[C@@]3(F)[C@@H](O)C[C@]2(C)[C@@]1(O)C(=O)CO [Dex, Dexamethasone, reference compound]
number of neutrophils infiltrating the ears compared to the PBS-treated controls: clear reduction
